Experimental data: PubChem BioAssay AID1259308 (NCATS, 2017)

Purpose: 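Candidate targets for better recombinant protein yield in mammalian cells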 (primary screen)
Cell system: human HEK293 embryonic kidney cells stably expressing firefly luciferase (HEK-CMV-Luc2-Hygro)
Reagents: single siRNA against human genes, 0.8 pmol siRNA per well
Duration: 72 h
Detection: 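Reporter luminescence and viable-cell signal on separate replicate plates, given as percent of non-targeting control and median/MAD z-scores, plus per-cell luciferase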
Scale: total luciferase, z-score and total luciferase, % of control: higher = more reporter protein produced
Hit rule: 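Active when the median/MAD z-score for overall luciferase is greater than 3; a gene was taken forward for validation with new siRNAs if at least two of its three siRNAs passed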
Meaning of the calls: active = raised luciferase; inactive = no rise
In all, the deposit lists about 59,000 reagents; shown is a random part of them. In the full data, about 1,510 (2.6%) got an active call. 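Calls use total luciferase alone and ignore viability, so some active siRNAs may act by altering cell number.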 Further read-outs or replicates are left out here.

| Gene | PubChem SID | total luciferase, z-score | total luciferase, % of control | outcome |
| --- | --- | --- | --- | --- |
| PTK2B | SID160730781 | 0.88 | 99.4 | inactive |
| PTK2B | SID160763746 | -0.818 | 65.6 | inactive |
| PTK2B | SID160763765 | -0.126 | 79.4 | inactive |
| CUX1 | SID160750862 | -0.747 | 67 | inactive |
| CUX1 | SID160750872 | -1.77 | 46.8 | inactive |
| CUX1 | SID160750884 | -1.35 | 55 | inactive |
| MGP | SID160777225 | 0.963 | 101 | inactive |
| MGP | SID160777226 | -0.405 | 73.8 | inactive |
| MGP | SID160777227 | 0.0327 | 82.5 | inactive |
| OR5AK2 | SID160766428 | 1.78 | 117 | inactive |
| OR5AK2 | SID160766429 | -0.253 | 76.9 | inactive |
| OR5AK2 | SID160766430 | -0.662 | 68.7 | inactive |
| CGN | SID160746192 | -0.357 | 74.8 | inactive |
| CGN | SID160746193 | -0.525 | 71.4 | inactive |
| CGN | SID160746194 | 0.205 | 86 | inactive |
| OR1S2 | SID160761420 | 0.556 | 92.9 | inactive |
| OR1S2 | SID160761421 | 0.82 | 98.2 | inactive |
| OR1S2 | SID160761422 | 0.169 | 85.2 | inactive |
| DZIP1L | SID160760722 | -0.453 | 72.9 | inactive |
| DZIP1L | SID160760724 | -0.765 | 66.7 | inactive |
| DZIP1L | SID160760725 | -0.424 | 73.4 | inactive |
| WT1-AS | SID160740670 | -1.97 | 42.6 | inactive |
| WT1-AS | SID160740671 | 1 | 102 | inactive |
| WT1-AS | SID160740672 | 0.352 | 88.9 | inactive |
| LILRA5 | SID160733149 | -0.697 | 68 | inactive |
| LILRA5 | SID160765206 | -0.219 | 77.5 | inactive |
| LILRA5 | SID160765207 | 0.262 | 87.1 | inactive |
| GPBAR1 | SID160724882 | 0.276 | 87.4 | inactive |
| GPBAR1 | SID160759093 | 1.34 | 109 | inactive |
| GPBAR1 | SID160759094 | 2.91 | 140 | inactive |
| CXCR2 | SID160775744 | 0.658 | 95 | inactive |
| CXCR2 | SID160775745 | -0.0617 | 80.7 | inactive |
| CXCR2 | SID160775746 | -2.51 | 32 | inactive |
| ZNF365 | SID160727893 | -2.59 | 30.4 | inactive |
| ZNF365 | SID160727894 | 1.35 | 109 | inactive |
| ZNF365 | SID160727895 | 0.533 | 92.5 | inactive |
| NAXE | SID160756725 | 0.326 | 88.4 | inactive |
| NAXE | SID160756726 | 3.29 | 147 | active |
| NAXE | SID160756727 | -0.631 | 69.3 | inactive |

Quoted from the entries so far, 4 entries:
| Gene | PubChem SID | total luciferase, z-score | total luciferase, % of control | outcome |
| --- | --- | --- | --- | --- |
| ZNF365 | SID160727895 | 0.533 | 92.5 | inactive |
| NAXE | SID160756725 | 0.326 | 88.4 | inactive |
| NAXE | SID160756726 | 3.29 | 147 | active |
| NAXE | SID160756727 | -0.631 | 69.3 | inactive |
